Source: ChEMBL document CHEMBL3988442, “University of Dundee, Small-Polar-MMV Screening Library” (2021).

Amino acid sequences for entries named in this document (tags omitted).
UniProt P9WPC5, whole entry: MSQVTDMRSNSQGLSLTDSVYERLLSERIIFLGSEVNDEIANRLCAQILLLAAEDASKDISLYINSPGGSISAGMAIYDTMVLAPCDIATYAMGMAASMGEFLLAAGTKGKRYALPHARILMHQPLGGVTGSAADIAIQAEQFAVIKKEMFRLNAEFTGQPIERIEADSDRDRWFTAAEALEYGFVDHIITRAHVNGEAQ
UniProt P9WPC3, whole entry partner: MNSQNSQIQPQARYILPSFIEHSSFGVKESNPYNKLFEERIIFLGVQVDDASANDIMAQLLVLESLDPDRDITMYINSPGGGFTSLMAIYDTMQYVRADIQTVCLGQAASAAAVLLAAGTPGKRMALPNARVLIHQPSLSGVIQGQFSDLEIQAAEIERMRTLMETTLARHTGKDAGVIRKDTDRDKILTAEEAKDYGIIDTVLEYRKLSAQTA
UniProt P9WNZ1, whole entry: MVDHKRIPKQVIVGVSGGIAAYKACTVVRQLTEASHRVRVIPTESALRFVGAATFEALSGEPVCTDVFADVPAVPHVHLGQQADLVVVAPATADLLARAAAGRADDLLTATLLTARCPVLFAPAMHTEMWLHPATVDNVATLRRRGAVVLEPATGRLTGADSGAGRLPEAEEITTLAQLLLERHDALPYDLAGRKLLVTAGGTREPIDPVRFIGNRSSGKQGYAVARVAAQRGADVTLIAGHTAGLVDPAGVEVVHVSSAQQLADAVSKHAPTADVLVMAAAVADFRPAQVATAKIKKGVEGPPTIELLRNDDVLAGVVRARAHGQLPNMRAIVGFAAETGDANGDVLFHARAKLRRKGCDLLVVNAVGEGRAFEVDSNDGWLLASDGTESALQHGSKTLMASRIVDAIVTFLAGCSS

A: 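Assay of Toxoplasma gondii numbers, read through their beta-galactosidase reporter with a colour substrate. Compounds at 10 µM. The record gives no direction; the compounds picked for IC50 retests had high values, so higher reads as fewer parasites. About 67,000 compounds were tested under these conditions; 0.38% (about 260) showed 50% or more at least once.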
B: 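Protease assay of ClpP1P2, read by the AMC dye that it sets free. Target: ClpP1P2, Mycobacterium tuberculosis (UniProt P9WPC5 and UniProt P9WPC3). Tested at 50 µM. Direction is inferred from only a few compounds that gave an IC50; most scored high, so higher reads as stronger inhibition. Most other retested compounds had strongly negative values. About 69,000 compounds were tested under these conditions; 0.015% (about 10) showed 50% or more at least once.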
C: 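Whole-parasite assay of Trypanosoma brucei over 72 hours; the read-out is not stated. Tested at 30 µM. Higher reads as stronger inhibition (inferred: compounds with an IC50 in retests scored well above the rest). Values scatter widely below zero; nearly all retest evidence comes from the higher of the two concentrations used. About 64,000 compounds were tested under these conditions; 1.5% (about 940) showed 50% or more at least once.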
D: 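Coenzyme A biosynthesis protein CoaBC, Mycobacterium tuberculosis (UniProt P9WNZ1). Enzyme assay of CoaBC with a phosphate dye (Biomol Green) read at 650 nm. Concentration: 30 µM. Higher reads as stronger inhibition, judged from the few compounds that gave an IC50. Most strong results did not repeat in a second test. About 67,000 compounds were tested under these conditions; 0.06% (about 40) showed 50% or more at least once.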

Each number is a percent effect as filed. The controls that fix the scale are not given in the record; negative values are as filed. This is an unselected part of the compounds tested.

With Cc1noc(C2CCN(C(=O)CCNS(C)(=O)=O)CC2)n1 the screen gave A: -16.77%; B: 9.589%; C: -15.96%; D: -1.295%. Result for Cn1nnnc1SCCNC(=O)C1CCN(C(=O)C2CCC2)CC1 was A: 18.24%; B: 2.854%; C: 2.09%; D: 11.36%. With CC(C)NC(=O)c1nnc2ccc(N3CCOCC3)cc2n1 the screen gave A: 3.569%; B: 17.88%; C: -35.32%; D: -2.771%. O=C(O)C(F)(F)F.[H][C@@]12CNCC[C@]1([H])OC[C@H](C(=O)NCCc1cccs1)C2 read A: 0.8069%. For CCC(=O)NCC(CC)Oc1cccc(F)c1 (centres unmarked) the result was A: 3.936%; B: -0.2292%; C: -17.67%; D: -5%. [H][C@@]12CN(C(=O)CC3CC3)C[C@]1([H])C(=O)N(CC1CC1)C2 gave A: -1.866%; C: -21.37%. CCOCc1cnc2n1CCN(C(=O)c1cn(C)c3ccccc13)C2C (centres unmarked) read A: -16.26%; B: -2.659%; C: 1.658%; D: 5.817%.

CCCn1cc(NC(=O)c2ccc(S(C)(=O)=O)cc2)ccc1=O gave A: -2.5%; B: -3.32%; C: -1.522%; D: 19.46%. O=C(O)C(F)(F)F.O=C(O)C(F)(F)F.[H][C@@]12CN(Cc3cnn(C)c3)C[C@]1([H])OCCN2c1ncccn1 gave A: 12.88%; C: -15.27%. O=C(c1ccn(-c2ccc(F)cc2)n1)N(CCO)Cc1cccnc1 read A: -3.609%; B: 17%; C: -33.22%; D: -8.264%. Result for CN1CCN(Cc2cnn(-c3ccccc3Cl)c2)[C@H]2CS(=O)(=O)C[C@H]21 was B: 0.003531%; D: 11.65%. Result for COCC1CN(C(=O)c2ccnnc2)Cc2c1cnn2C (centres unmarked) was A: 1.498%; B: -2.748%; C: 13.25%; D: -15.54%. With CCc1nc(C2CCCN2C(=O)c2ccc3c(c2)nc(C)n3C)no1 (centres unmarked) the screen gave A: -1.331%; B: 1.28%; C: 10.6%; D: 0.3911%. For COc1ccccc1N1CCN(C(=O)COc2c(C)occc2=O)CC1 the result was A: -5.148%; B: -9.208%; C: -16.33%; D: -1.519%.

Cc1n[nH]c2nc(-c3cccc(Cl)c3)cc(C(=O)O)c12 gave A: -15.07%; B: -12.83%; C: -25.82%; D: 1.139%. Result for CCCn1ccnc1CN1CCCC(CC)(CO)C1 (centres unmarked) was A: 5.745%; B: -7.745%; C: -11.95%; D: -1.141%. With Cc1cc(SCC(=O)O)nc2nn(CC(F)F)c(C)c12 the screen gave A: 4.963%; B: 8.46%; C: -20.88%; D: 0.8589%. For Cc1nc(NCc2coc(-c3ccccc3)n2)cc(C2CCNCC2)n1 the result was A: 37.6%; B: 5.232%; C: -15.89%; D: 5.98%. O=c1c(Cc2ccccc2)c(O)ccn1CCc1ccccc1 read A: -23.44%; B: -15.01%; D: -3.222%. With O=C(COC1CCCC1)N1C[C@@H]2CN(Cc3ccoc3)CCO[C@@H]2C1 the screen gave B: -0.513%; D: 1.25%. With CCOc1cc(NC(=O)N2CCC(c3nnc[nH]3)CC2)ccc1C the screen gave A: -0.1775%; B: -10.54%; C: -1.946%; D: -2.893%.

With CCc1ncc(CN2CCC(CCc3ccccc3)CC2)cn1 the screen gave A: 17.61%; B: 23.41%; C: -6.471%; D: 8.949%. Cc1ccc(N2CCO[C@H]3CN(CC4CC4)C[C@H]32)nn1 gave B: 4.501%; D: 3.856%. COCCOc1ncccc1C(=O)N(C)c1ccc(OC)nc1 gave A: -7.191%; B: -5.286%; C: -52.77%; D: 1.585%. For CCN1CCN(C(=O)Cc2ccc(S(=O)(=O)C(F)F)cc2)CC1 the result was A: 10%; B: 0.5163%; C: -16.26%; D: 10.08%. O=c1ccc(-c2cccs2)nn1CN1CCOCC1 read A: -28.89%; B: 7.629%; C: -35.62%; D: 1.01%. Result for CCS(=O)(=O)N1CCOC2(CCCN(c3ccc(C)nn3)C2)C1.O=C(O)C(F)(F)F (centres unmarked) was A: -0.8547%; C: -52.14%. With CS(=O)(=O)N1CCCC12CCCN(S(=O)(=O)c1cc(F)cc(F)c1)C2 (centres unmarked) the screen gave A: 1.754%; B: -9.803%; C: -42.12%; D: 1.762%.

For CCNC(=O)c1nnn(Cc2ccccc2)c1OC the result was A: -0.1195%; B: -1.353%; C: 40.11%; D: -4.172%. O=C(c1cc2cccc(F)c2[nH]1)N1C[C@@H](O)[C@H](N2CCCC2)C1 read A: -5.377%; B: -37.08%; C: -11.41%; D: 0.6849%. For C[C@H]1C[C@H]2CN(C(=O)CCOc3ccccc3)CC[C@H]2O1 the result was B: 5.83%; D: 4%. CCn1cc(CN2CCC3(CC2)c2ccccc2CC3O)cn1 (centres unmarked) read A: 1.619%; B: 3.514%; C: -36.94%; D: 3.708%.

Some entries from above, unchanged:

| SMILES | A | B | C | D |
|---|---|---|---|---|
| `CCC(=O)NCC(CC)Oc1cccc(F)c1` (centres unmarked) | 3.936% | -0.2292% | -17.67% | -5% |
| `COc1ccccc1N1CCN(C(=O)COc2c(C)occc2=O)CC1` | -5.148% | -9.208% | -16.33% | -1.519% |
| `Cn1nnnc1SCCNC(=O)C1CCN(C(=O)C2CCC2)CC1` | 18.24% | 2.854% | 2.09% | 11.36% |
| `Cc1n[nH]c2nc(-c3cccc(Cl)c3)cc(C(=O)O)c12` | -15.07% | -12.83% | -25.82% | 1.139% |